Measurements from publication PMC13144739, “Global analysis of cancer cell responses to USP9X inhibition” (The EMBO Journal, 2026).

Assays:
Assay type in all cases: cell-based, human
[1] = test system: DLD-1 cells; test: Ubiquitinomics (K-GG peptide profiling), DLD-1; conditions: DLD-1, 10 µM, 30 min, log2 > 2, adjusted P < 0.05
[2] = test system: MDA-MB-231 cells; test: Ubiquitinomics (K-GG peptide profiling), MDA-MB-231; conditions: MDA-MB-231, 10 µM
[3] = test system: eight cell lines (A549, DLD-1, MDA-MB-231, MiaPaca2, OVCAR8, UO-31, SK-MEL-2, HMEC-1); test: Global proteomics across eight cell lines; conditions: 10 µM, 24 h

| SMILES | number of K-GG-modified peptides enriched [1] | number of K-GG peptides with increased abundance ([2]; 30 min) | number of proteins carrying increased K-GG peptides ([2]; 30 min) | number of high-confidence USP9X substrates (increased ubiquitination and decreased protein levels) ([2]; 30 min / 6 h / 24 h) | number of proteins commonly depleted across the cell lines tested ([3]; decreased in at least four of eight cell lines) | number of proteins significantly downregulated in at least one of the cell lines ([3]; eight cell lines) |
| --- | --- | --- | --- | --- | --- | --- |
| O=C(C[C@@H](C(F)F)n1ccc(F)n1)N1CCC(O)(Cn2cnc3c(cnn3-c3ccc(F)cc3)c2=O)CC1 [FT671, reference compound] | 804 |  |  |  |  |  |
| Cc1[nH]c2ccc(C(=O)N3CCN(S(=O)(=O)c4ccc5c(c4)OCCO5)CC3)cc2c1C [WEHI-092] | 420 | 1323 | 851 | 69 | 17 | 99 |
